# Test results as given in US20120208776A1 (priority 2002, published 2012).
# At least one compound was matched to its structure with a doubt left.
# Test system: Na^+-K^+-ATPase
# Assay: Enzymatic assay of adenosine 5′-triphosphatase
# Assay type: biochemical
# Conditions: 20 μM
# Protocol: Enzymatic assay of adenosine 5′-triphosphatase. The enzymatic assay of ATPase (adenosine 5′-triphosphatase, EC 3.6.1.3) followed the Sigma Prod. […] [P] was determined by the Taussky-Shorr method.
structure (smiles),measurement,value
CCC(C)(C)C(=O)O[C@H]1C[C@@H](C)C=C2C=C[C@H](C)[C@H](CC[C@@H]3C[C@@H](O)CC(=O)O3)[C@H]21 [simvastatin],percent inhibition of in vitro Na^+-K^+-ATPase activity,about 35%
